The source of these data is paper PMC10441986.

These are yes or no findings as the source states them, for the method shown. For some assays here: In cells and extracts the contact can be indirect. Some entries that bind do so weakly or less than the wild type. Where a sequence is shown, tags or fusion partners need not be part of it.

Experiment [1] deals with T1, ornithine decarboxylase antizyme 1 (OAZ1) of Recilia dorsalis, yeast two-hybrid fusion (Recilia dorsalis).
T1 sequence: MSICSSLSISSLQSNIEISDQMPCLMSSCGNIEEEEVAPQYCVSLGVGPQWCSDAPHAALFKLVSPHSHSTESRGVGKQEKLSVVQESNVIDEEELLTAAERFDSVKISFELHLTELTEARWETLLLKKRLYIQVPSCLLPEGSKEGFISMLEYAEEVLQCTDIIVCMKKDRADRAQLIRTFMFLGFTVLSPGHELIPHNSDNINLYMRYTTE
The experiment is described as follows: two-hybrid; Matchmaker Gal4 Two-Hybrid System3 (Clontech), bait plasmid pGBKT7 and prey plasmid pGADT7, yeast strain AH109; growth on DDO and QDO + X-alpha-gal plates, also serially diluted 10^-1 to 10^-4.

Experiment [2] concerns the target T2, GST-OAZ1 (OAZ1 of Recilia dorsalis fused with GST) (Recilia dorsalis).
T2 sequence: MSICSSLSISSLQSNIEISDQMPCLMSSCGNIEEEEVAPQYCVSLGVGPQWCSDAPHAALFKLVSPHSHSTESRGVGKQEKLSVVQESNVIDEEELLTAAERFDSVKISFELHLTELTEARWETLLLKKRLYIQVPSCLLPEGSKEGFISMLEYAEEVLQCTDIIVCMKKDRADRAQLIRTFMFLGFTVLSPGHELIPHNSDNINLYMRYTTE
The experiment is described as follows: pull-down; GST-fused proteins on glutathione-Sepharose beads 4 h at 4 °C, His-fused proteins then added 2 h at 4 °C; western blot with antibodies against GST and His.

B1: ornithine decarboxylase 1 (ODC1) of Recilia dorsalis, yeast two-hybrid fusion (enzyme, UniProt A0A8K1F0V5 1-436)
chain: MRNVSVTDMIHILDPNTAPMDVLRAIALSGVQENAFYILDVGDIVHKHSEWKMKMPRVQPFYAVKCNDSQLVLATLAALGTGFDCASKTEIAKVMDLGVDGSRIIFANPAKMASHIRYAAAQGVDTMTFDNECELYKVKQLHPNARMVLRIRCDATVAQCQLGMKFGCEPLTEAPRLLKLAAALGLTVVGISFHVGSGCQDPPVFRRAISAARDLFDLGAQLGFNMALLDIGGGYPGNRGSNIDKIAEVVNAALDDYFPESLGVQVIAEPGRFYVASAYTLATLVHSKRDTMYYINDGVYGSFNCILYDHAIVKPVPLENKGGKPVVSSVWGPTCDGLDQVVESVLLPPLDIGDWLVFEDMGAYTLPVASTFNGFPVPKVHAVIDESVWHYLKDCLPLTEDHFTVQNNNWKSVWDIPSPEQSTPPSPTPYIYELMA
As for B1, in experiment [1], the binding entry is reported as “binds”.

B2: His-ODC1 (ODC1 of Recilia dorsalis fused with His) (enzyme, UniProt A0A8K1F0V5 1-436)
chain: MRNVSVTDMIHILDPNTAPMDVLRAIALSGVQENAFYILDVGDIVHKHSEWKMKMPRVQPFYAVKCNDSQLVLATLAALGTGFDCASKTEIAKVMDLGVDGSRIIFANPAKMASHIRYAAAQGVDTMTFDNECELYKVKQLHPNARMVLRIRCDATVAQCQLGMKFGCEPLTEAPRLLKLAAALGLTVVGISFHVGSGCQDPPVFRRAISAARDLFDLGAQLGFNMALLDIGGGYPGNRGSNIDKIAEVVNAALDDYFPESLGVQVIAEPGRFYVASAYTLATLVHSKRDTMYYINDGVYGSFNCILYDHAIVKPVPLENKGGKPVVSSVWGPTCDGLDQVVESVLLPPLDIGDWLVFEDMGAYTLPVASTFNGFPVPKVHAVIDESVWHYLKDCLPLTEDHFTVQNNNWKSVWDIPSPEQSTPPSPTPYIYELMA
B2: the binding entry in experiment [2] is “binds”.
